These are yes or no findings as the source states them, for the method shown. Binding seen in cells or lysates may run through a third protein. These calls come from enrichment with a bait or labelling near it, and not all partners need be listed. Tags and fused reporters may be left off the sequences shown.
Target: T1, GFP-tagged Arabidopsis SEIPIN1 (Arabidopsis thaliana) (UniProt Q9FFD9)
T1 sequence: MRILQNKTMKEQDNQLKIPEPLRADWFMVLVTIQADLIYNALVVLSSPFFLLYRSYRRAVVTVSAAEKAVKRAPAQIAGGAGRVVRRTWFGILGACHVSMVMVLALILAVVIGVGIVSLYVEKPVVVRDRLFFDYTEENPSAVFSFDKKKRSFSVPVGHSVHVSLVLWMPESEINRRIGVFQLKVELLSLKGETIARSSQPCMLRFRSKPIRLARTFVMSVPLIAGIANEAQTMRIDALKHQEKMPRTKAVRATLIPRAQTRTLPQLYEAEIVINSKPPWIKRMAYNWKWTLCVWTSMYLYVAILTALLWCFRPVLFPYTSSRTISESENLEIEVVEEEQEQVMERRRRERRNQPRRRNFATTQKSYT
Experiment: affinity purification with mass spectrometry; GFP-Trap agarose (anti-GFP VHH on agarose beads) on extracts of A. tumefaciens-infiltrated N. benthamiana leaves expressing GFP alone or GFP-SEIPIN1, with or without co-expressed Arabidopsis LEC2; co-purifying proteins identified by MS

Row | binding | Substance
1 | binds | endogenous N. benthamiana oleosin (oleosin isoform 5 [OLE5])
2 | binds | endogenous N. benthamiana LDIP
